For 44 compounds, AC50 results are on record in PubChem BioAssay AID901 (National Center for Advancing Translational Sciences (NCATS), 2007).

Some of the results follow. The main result of the screen is listed elsewhere. These columns were measured beside it and carry no call. The list favours compounds with an active or inconclusive main result. Words in brackets tell the shape of the fitted curve; partial curves, single points and poor fits give uncertain potencies.

The test in a line: qHTS Assay for Identifying the Cell-Membrane Permeable IMPase Inhibitors. The note with it: CHO-M1 cells, IP1 accumulation, HTRF TR-FRET ratio; measured here: donor channel 620 nm AC50. In general terms: In qHTS, concentration-response curves come from the screen itself.
As usually defined, the AC50 is the concentration giving half of the maximal activity seen. For `CCN1C(=O)c2ccccc2S(=O)c2ccc(C(=O)N3CCCC3)cc21` (centres undefined), the AC50 was 6.31 µM [falling, partial curve, poor fit].
As for `O=C(NCCCc1ccccc1)C1CC(=O)N(c2ccc3c(c2)OCCO3)C1` (centres undefined), the figure is 31.6 µM [falling, single point]; as for `CCCCNC(=O)CCSc1nc2nc(C)cc(C)n2n1`, 6.31 µM [rising, single point].
With `COc1cc(NC(=O)c2ccc(COc3ccccc3Br)o2)cc(OC)c1OC`, the concentration at half-maximal activity (AC50) is 0.562 µM [falling, full curve].
In the case of `CCOc1ccccc1NC(=O)c1ccc(NC(=O)c2ccco2)cc1` it was 10 µM [falling, partial curve]; in that of `CC(C)C(=O)Nc1nnc(CCc2nnc(NC(=O)C(C)C)s2)s1`, 0.126 µM [falling, full curve].
As for `O=C(NCc1ccccc1)N1CCn2c(nc3ccccc32)C1`, the figure is 0.251 µM [falling, full curve]; as for `CCSc1nnc(NC(=O)c2ccc3ccccc3n2)s1`, 31.6 µM [falling, single point]; as for `Fc1ccc(Br)cc1C1C=C(c2ccc(Br)s2)Nc2ncnn21` (centres undefined), 25.1 µM [rising, partial curve, poor fit].
Regarding `COc1ccc(/C=N/NC(=O)c2cccc([N+](=O)[O-])c2)cc1OC(=O)c1ccccc1`, the half-maximal activity concentration (AC50) is 0.0794 µM [falling, full curve, poor fit].
As for `CCOC(=O)N1CCN(C(=O)C2CCN(C(=O)c3cc4sccc4n3CC)CC2)CC1`, the figure is 3.55 µM [rising, partial curve, poor fit]; as for `O/N=C1/CCSc2ccccc21`, 3.16 µM [rising, partial curve]; as for `O=C(O)c1cc(S(=O)(=O)N2CCCCCC2)c(Cl)cc1Cl`, 0.0794 µM [rising, full curve, poor fit].
In the case of `O=c1nc2s/c(=C\c3ccco3)c(=O)n2nc1Cc1ccc(F)cc1` it was 25.1 µM [falling, partial curve, poor fit]; in that of `O=S(=O)(c1ccc(Cl)cc1)N1CCCC1c1nc(-c2cccc(Cl)c2)no1` (centres undefined), 0.2 µM [falling, full curve]; in that of `CCOCCCNC(=O)Cn1ncc2c(=O)oc3ccccc3c21`, 15.8 µM [rising, partial curve].
As for `CCn1c(C)cc2c(c1=O)C(c1ccccc1Br)C(C#N)=C(N)O2` (centres undefined), the figure is 0.0891 µM [falling, full curve, poor fit]; as for `Cc1ccccc1NC(=S)Nc1ccc(Br)cc1`, 35.5 µM [rising, single point].
Regarding `Cc1cc(NC(=O)CSc2nc3ccsc3c(=O)n2NC(=O)c2ccccc2)no1`, the AC50 is 0.631 µM [falling, full curve].
As for `COc1ccccc1NC(=O)C1=C(C)Nc2nc(SC)nn2C1c1ccccc1Cl` (centres undefined), the figure is 0.02 µM [falling, full curve, poor fit]; as for `Cc1cccc(OCc2nc(C#N)c(NCCN(C)C)o2)c1`, 0.0447 µM [falling, full curve, poor fit].
Regarding `O=c1cc(N2CCc3ccccc3C2)[nH]c(=O)n1-c1ccc(Cl)cc1`, the AC50 is 0.794 µM [rising, full curve, poor fit].
In the case of `Cc1ccc2nc(SCCC(=O)O)cc(C)c2c1` it was 12.6 µM [rising, partial curve].
In the case of `COC(=O)C1=C(N)N(c2ccc(F)cc2)C2=C(C(=O)CCC2)C1c1ccc2c(c1)OCO2` (centres undefined) it was 0.00355 µM [falling, full curve, poor fit]; in that of `CCN(CC)S(=O)(=O)c1ccc(NC(=O)Cn2c(=O)sc3ccccc32)cc1`, 1.26 µM [falling, single point].
In the case of `COCCNC(=O)C(=O)N/N=C/c1ccccc1C(F)(F)F` it was 1 µM [falling, full curve]; in that of `CCCCCn1c(SCC(=O)OCC)nc2cc(C(=O)N3CCC(C(N)=O)CC3)ccc2c1=O`, 0.0501 µM [rising, full curve, poor fit].
`CC(C)C(=O)NC(c1ccco1)c1c(O)ccc2ccccc12` (centres undefined): the half-maximal activity concentration (AC50) was 3.16 µM [rising, full curve].
In the case of `c1ccc(-c2cc3n(c2)CCc2ccccc2-3)cc1` it was 15.8 µM [falling, single point]; in that of `Cc1csc2ncc(C(=O)N3CCCc4ccccc43)c(=O)n12`, 0.0562 µM [rising, full curve, poor fit].
In the case of `FC(F)(F)c1cc(-c2ccco2)nc(NCc2ccco2)n1` it was 0.126 µM [falling, full curve]; in that of `Nc1nnc(COc2ccccc2)s1`, 0.501 µM [falling, full curve]; in that of `O=c1c2ccccc2nc2n1CCCS2`, 3.98 µM [rising, partial curve].
In the case of `C/C(N)=C(/C#N)C(=O)CSc1nnc(Nc2cccc(C)c2C)s1` it was 0.316 µM [falling, full curve]; in that of `CCN1CCN(CC(=O)NC2CCCC2)C(=O)C1=O`, 3.16 µM [rising, single point].
In the case of `COc1cc2c(c(OC)c1)C(c1cccc(F)c1F)CC(=O)N2` (centres undefined), the AC50 was 35.5 µM [falling, partial curve, poor fit].
In the case of `Cc1ccccc1NC(=O)CSc1nnnn1C` it was 0.794 µM [rising, full curve, poor fit]; in that of `CN(C(=O)c1cccnc1)c1nnc(-c2ccccn2)s1`, 10 µM [falling, partial curve, poor fit]; in that of `Cn1ncc(C#N)c1/N=C/N1CCOCC1`, 20 µM [rising, single point].
In the case of `Cc1ccccc1C(=O)c1cccn1CC(=O)NCC1CCCO1` (centres undefined) it was 1.58 µM [falling, full curve]; in that of `Cn1c(SCC(=O)NCc2ccc3c(c2)OCO3)nnc1-c1cc2ccccc2cc1O`, 0.316 µM [falling, partial curve, poor fit].
For the compound `COc1cc(C(=O)O/N=C2/C=CC(=O)C(C)=C2C)cc(OC)c1OC`, the AC50 is 0.501 µM [rising, full curve, poor fit].
Regarding `COc1ccc(C2c3c(oc4ccccc4c3=O)C(=O)N2c2ccc(C)cn2)cc1OC` (centres undefined), the concentration at half-maximal activity (AC50) was 2.24 µM [rising, partial curve].
In the case of `CCOC(=O)C(NC(C)=O)(Nc1ccc(S(=O)(=O)Nc2ccncn2)cc1)C(F)(F)F` (centres undefined) it was 31.6 µM [falling, single point].
